Results on 63 compounds are retold here after PubChem BioAssay AID493014 (National Center for Advancing Translational Sciences (NCATS), 2011).

Some of the results follow. Shown are side measurements of this screen, not its main read-out; they come without a call. Most of these compounds were active or inconclusive in the main read-out, so they are no random draw. The note in brackets gives the kind of curve behind each potency; many fits are weak.

The nature of this assay: qHTS Assay to Find Inhibitors of Chronic Active B-Cell Receptor Signaling. The following applies: ABC-DLBCL IkBa-CBG/CBR reporter, luminescence ratio (green luciferase fused to IkBa over red control in TMD8 lymphoma cells), 4 h. The method in brief: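 TMD8 ABC-DLBCL cells carrying doxycycline-inducible green luciferase fused to IkappaBalpha plus unfused red luciferase were exposed to compounds (up to 46 uM) for 4 hrs at 37C. Activity came from the overlap-corrected green/red luminescence ratio.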
On the technique in general: Quantitative high-throughput screening tests each substance at several concentrations.

The mark [1] stands for this setting: measured here: CBR red luminescence, cell number.

As a reminder, the AC50 is the concentration at which the activity in the assay is half-maximal. As to `COc1nc(NCCC2=CCCCC2)nc(OC)n1`, the AC50 under setting [1] was 2.51 µM [rising, full curve, poor fit].
For `CSc1ccccc1NC(=O)Nc1cccc(F)c1`, the AC50 under setting [1] is 2.82 µM [falling, partial curve, poor fit].
As for `CCOC(=S)SCC(=O)Nc1ncc(C)s1`, the AC50 under setting [1] is 6.31 µM [falling, partial curve].
The same measure, in the same setting: as for `COc1cc(NC(=O)COc2cccc(OC)c2)cc(OC)c1`, the figure is 31.6 µM [falling, partial curve, poor fit].
Regarding `S=C(NCCc1ccccc1)N/N=C/c1ccccc1Cl`, under setting [1], the AC50 was 1.64 µM [rising, partial curve, poor fit].
On to `CC1CN(C(=O)COc2ccc3ccccc3c2Br)CC(C)O1` (stereo not drawn), for which the concentration at half-maximal activity (AC50) under setting [1] is 2 µM [rising, partial curve].
Turning to `COc1ccc(-c2cc(C(=O)NC(C)C)no2)cc1`, the AC50 under setting [1] was 10.3 µM [falling, partial curve].
As to `CN(C(=O)c1ccccc1)c1nc2ccccc2s1`, the AC50 under setting [1] was 12.6 µM [falling, single point].
For `Cc1cc(NCCCn2ccnc2)n2nc(-c3ccc(Cl)cc3)cc2n1`, the AC50 under setting [1] is 35.5 µM [falling, single point].
Consider `CCOc1nc(Nc2ccccc2F)nc(OCC)n1`, for which the AC50 under setting [1] is 35.5 µM [falling, partial curve, poor fit].
`COc1ccc(N2C(=S)NC3N2C(=S)NC3(C)c2ccccc2)cc1` (stereo not drawn): the AC50 under setting [1] is 35.5 µM [falling, single point].
Turning to `Cc1nn(CC(=O)Nc2ccccn2)c(=O)c2ccccc12`, the AC50 under setting [1] is 0.103 µM [rising, full curve, poor fit].
With `CC(C)(CC(=O)NCc1ccc(Cl)cc1Cl)CC1=NS(=O)(=O)c2ccccc2N1`, the AC50 under setting [1] is 35.5 µM [falling, single point].
Take `CN(C)c1ccc(/C=C/c2nc3ccccc3c(=O)n2-c2ccc(C(=O)O)cc2)cc1`: the AC50 under setting [1] was 17.8 µM [falling, partial curve, poor fit].
For `COc1cccc2cc(C(=O)NCCc3ccccc3)oc12`, under setting [1], the AC50 is 35.5 µM [falling, single point].
Same read-out and setting: under `O=C1c2ccccc2-c2onc3ccc(Oc4ccccc4)c1c23` stands 1.84 µM [falling, full curve]; under `Cc1ccc(-c2cc3onc(-c4ccccc4)c3c(=O)n2C)cc1`, 0.0517 µM [falling, full curve].
Take `CN(CC(=O)Nc1ccccc1C(F)(F)F)C(=O)c1ccccc1Sc1ccccc1C#N`: the AC50 (measured here: IkBa-CBG green luminescence) was 23.1 µM [falling, partial curve, poor fit].
As for `CC(NS(=O)(=O)c1ccccc1)C(c1cccs1)N1CCOCC1` (stereo not drawn), the AC50 under setting [1] was 32.6 µM [rising, single point].
For `COc1ccc(CCn2ccc(O)c(Cc3ccc(Cl)cc3)c2=O)cc1OC`, the AC50 under setting [1] is 25.1 µM [falling, single point].
For the compound `Cn1c(=O)c2ncn(CC(=O)O)c2n(C)c1=O`, the AC50 under setting [1] is 35.5 µM [rising, single point].
For `CN1CCC(N(C)C(=O)c2ccc(Cl)c(S(=O)(=O)Nc3cc(Cl)ccc3Cl)c2)CC1`, under setting [1], the AC50 is 25.9 µM [falling, single point].
With `O=C(CSc1nnc(Cc2cccs2)n1Cc1ccco1)Nc1cc(Cl)cc(Cl)c1`, the AC50 under setting [1] is 17.8 µM [falling, single point].
Take `CN(C)S(=O)(=O)c1cccc(C(=O)OCC(=O)c2c(N)n(C)c(=O)n(C)c2=O)c1`: under setting [1], the AC50 is 5.01 µM [rising, partial curve, poor fit].
As for `O=[N+]([O-])c1ccc(S(=O)(=O)Nc2ccc(-c3csc(-c4ccccc4)n3)cc2)cc1`, the AC50 under setting [1] was 14.1 µM [falling, partial curve].
Take `Cc1cccc(/C=C/C(=O)c2cc(Br)ccc(=O)c2O)c1`: under setting [1], the AC50 is 13 µM [falling, partial curve, poor fit].
As to `C=CCOC(=O)C(C#N)c1nc2ccccc2nc1N1CCC(C(=O)OCC)CC1` (stereo not drawn), under setting [1], the AC50 is 18.4 µM [falling, single point].
On the same count and under the same terms, as for `CCOc1ccccc1C(=O)Nc1cc(C(=O)NCCc2ccccc2)ccc1Cl`, the figure is 3.16 µM [rising, single point]; as for `COc1cc(/C=N/NC(=O)c2ccncc2)ccc1O`, 17.8 µM [falling, partial curve, poor fit]; as for `CN(C(=O)c1ccc(NC(=O)C2CC=CCC2C(=O)O)cc1)c1ccccc1` (stereo not drawn), 2.06 µM [rising, partial curve, poor fit].
For the compound `CC1CN(Cc2cn(C)nc2-c2ccc(Oc3ccccc3)cc2)CCN1C` (stereo not drawn), under setting [1], the AC50 was 35.5 µM [falling, single point].
Same read-out and setting: under `COc1cc([N+](=O)[O-])ccc1NC(=O)Cc1ccc(F)cc1` stands 23.1 µM [rising, partial curve, poor fit].
Same read-out and setting: under `CC[C@H]1OC(=O)C[C@@H](O)[C@H](C)[C@@H](O[C@@H]2O[C@H](C)C[C@H](N(C)C)[C@H]2O)[C@@H](CC=O)C[C@@H](C)C(=O)C=C[C@]2(C)O[C@H]2[C@@H]1C` stands 12.6 µM [falling, partial curve, poor fit]; under `Nn1cc(-c2ccccc2)nc1SCC(=O)N1CCN(S(=O)(=O)c2ccc3ccccc3c2)CC1`, 1.03 µM [rising, full curve, poor fit]; under `C/C(=N\NC(=O)c1ccn(C)n1)c1ccc(NC(=O)c2cccc(F)c2)cc1`, 11.2 µM [falling, partial curve].
As for `COCC(C)NC(=O)c1noc2c1CCc1cc(OC)ccc1-2` (stereo not drawn), the AC50 under setting [1] was 16.4 µM [falling, partial curve].
As to `O=C(O)CC1(CC(=O)Nc2ccc(C(F)(F)F)cc2)CCCC1`, under setting [1], the AC50 is 0.112 µM [rising, full curve, poor fit].
Turning to `CCC(C)(C)NC(=O)C(c1cccn1C)N(Cc1ccccc1)C(=O)Cn1nnc2ccccc21` (stereo not drawn), the AC50 under setting [1] was 7.94 µM [rising, partial curve, poor fit].
Consider `COc1cc(C(=O)OCC(=O)N2CCCC2)cc2c1OCCO2`, for which the AC50 under setting [1] was 18.4 µM [falling, partial curve, poor fit].
As for `COc1cccc(C2=CC(c3cccc(OC)c3OC(F)F)n3nnnc3N2)c1` (stereo not drawn), the AC50 under setting [1] was 13 µM [falling, single point].
`Cc1ccccc1CN1CCN(c2nc3ccccc3s2)CC1`: under setting [1], the AC50 was 7.08 µM [rising, partial curve].
In the case of `COc1ccc(CNC(=O)COC(=O)c2n[nH]c3ccccc23)cc1`, the AC50 under setting [1] was 10 µM [falling, partial curve].
For the compound `Cc1c(CCOC(=O)C23CC4CC(CC(C)(C4)C2)C3)sc[n+]1CC(=O)c1ccccc1`, under setting [1], the AC50 was 3.16 µM [rising, partial curve].
The same measure, in the same setting: as for `CCOC(=O)C1CCN(Cc2ccc(OCc3ccccc3)cc2)CC1`, the figure is 35.5 µM [rising, single point].
In the case of `CCOC(=O)N1CCN(c2ccc(S(=O)(=O)N3CCOCC3)cc2[N+](=O)[O-])CC1`, the AC50 under setting [1] is 0.731 µM [rising, partial curve, poor fit].
The same measure, in the same setting: as for `COc1ccccc1/C(C)=N/Oc1cc(N)cc([N+](=O)[O-])c1`, the figure is 29.1 µM [rising, single point]; as for `CCOc1cc(/C=N\NC(=O)OC(C)(C)C)ccc1OC(=O)c1ccco1`, 5.62 µM [rising, single point]; as for `NC(=O)c1ccc(N=Nc2c(-c3ccccc3)[nH]n(-c3ccccc3)c2=O)cc1`, 3.55 µM [falling, partial curve].
In the case of `CCC(=O)c1ccccc1OCCCN1CCC(Cc2ccccc2)CC1`, under setting [1], the AC50 is 6.31 µM [falling, partial curve].
`COc1cc(OC)c2c(-c3cccc(-c4ccc(C(F)(F)F)cc4)c3)cc(=O)oc2c1`: the AC50 under setting [1] was 18.4 µM [rising, partial curve, poor fit].
`CN(C)CCC(c1ccc(Br)cc1)c1ccccn1` (stereo not drawn): the concentration at half-maximal activity (AC50) under setting [1] is 10 µM [falling, partial curve].
Same read-out and setting: as for `CCN1CCN(CCCNC(=O)c2cc3c(=O)[nH]c4ccccc4c3s2)CC1`, the figure is 29.1 µM [falling, single point]; as for `CN1C(=O)/C(=C/c2cn(CC(=O)N3CCCCC3)c3ccccc23)NC1=S`, 3.16 µM [falling, full curve].
Consider `Cc1ccc2nc(SCC(=O)Nc3c(C)n(C)n(-c4ccccc4)c3=O)[nH]c2c1`, for which the AC50 under setting [1] is 1.84 µM [falling, full curve, poor fit].
On the same count and under the same terms, under `COc1cc2c(cc1OC)C(C)N(C(=O)c1cc3c(=O)oc4ccc(C)cc4c3s1)CC2` (stereo not drawn) stands 0.651 µM [rising, partial curve, poor fit]; under `Cc1ccc(-c2nc(CSc3nc4ccccc4c(=O)n3CCO)cs2)cc1`, 23.1 µM [falling, single point]; under `CC1CC(C)(C)NC(=S)N1CCCC(=O)Nc1ccc(F)c(F)c1` (stereo not drawn), 10 µM [rising, partial curve, poor fit].
Regarding `Cc1cc(C)c(S(=O)(=O)N2CCCCC2CCNC(=O)C(=O)NCc2ccccn2)c(C)c1` (stereo not drawn), the AC50 under setting [1] is 2.91 µM [falling, full curve].
Regarding `COc1cc(/C=N\NC(=O)c2ccc(-c3ccccc3)cc2)cc(OC)c1O`, the AC50 under setting [1] is 25.1 µM [falling, single point].
The same measure, in the same setting: as for `O=C(N/N=C/C(Cl)=C/c1ccc([N+](=O)[O-])cc1)C(=O)Nc1cccc(C(=O)O)c1`, the figure is 7.08 µM [falling, partial curve, poor fit].
Same read-out and setting: under `O=C(Nc1ccccc1SCC1CSc2nc3ccccc3c(=O)n21)c1ccccc1` (stereo not drawn) stands 25.9 µM [falling, partial curve, poor fit].
Regarding `CC(C)NC(=O)C1CCN(C2CCN(CC3CC=CCC3)CC2)CC1` (stereo not drawn), the AC50 under setting [1] is 11.2 µM [rising, partial curve, poor fit].
On the same count and under the same terms, as for `CCc1ccc(NC(=O)COc2ccc(F)cc2C(=O)c2cnn(-c3ccccc3)c2)cc1`, the figure is 25.9 µM [rising, single point].
